Reference: PubChem BioAssay AID504847 (National Center for Advancing Translational Sciences (NCATS), 2011)
Screen size: about 400,000 compounds; about 3,700 (0.93%) were called active. Inconclusive means that the source gave no clear call. Such entries were picked first, then a sample of the others. The call rests on the fitted dose curve; in most records, active means well fitted inhibition curve with a large enough effect; inconclusive means small, poorly fitted or top-dose-only effect, or another doubt; inactive means no such curve, though single readings can be large or run the other way. Potencies beside an inconclusive call are fits to weak or partial responses and may not hold up.

Amino acid sequences for entries named in this document (tags omitted). A change or cut given only in a name is not applied to a line headed by its entry.
UniProt P11473: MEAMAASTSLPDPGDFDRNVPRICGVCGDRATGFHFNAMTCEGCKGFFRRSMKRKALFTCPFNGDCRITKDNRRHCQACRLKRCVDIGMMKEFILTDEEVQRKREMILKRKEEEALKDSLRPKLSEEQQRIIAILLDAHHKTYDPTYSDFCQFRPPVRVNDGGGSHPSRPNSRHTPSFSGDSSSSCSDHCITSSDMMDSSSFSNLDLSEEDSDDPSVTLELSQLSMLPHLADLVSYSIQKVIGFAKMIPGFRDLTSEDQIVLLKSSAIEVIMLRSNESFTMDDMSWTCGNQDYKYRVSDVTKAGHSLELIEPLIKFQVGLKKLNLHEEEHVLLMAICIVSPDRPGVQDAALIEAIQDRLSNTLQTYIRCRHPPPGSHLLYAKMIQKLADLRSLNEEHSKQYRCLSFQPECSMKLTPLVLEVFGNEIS

Molecular target: Vitamin D3 receptor (Homo sapiens) (UniProt P11473)
Assay: Inhibitors of the vitamin D receptor (VDR): qHTS
Conditions: VDR-SRC2-3 peptide fluorescence polarization, 2 h; max response, negative = inhibition: active compounds read low
Method in brief: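 Fluorescence polarization assay measuring small-molecule disruption of VDR binding to the coregulator peptide SRC2-3. Compounds were pin-transferred (23 nl) into the reagent mix and incubated 2 h at room temperature before reading.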
On the % scale 0 is the no-effect control and ±100 the full control effect; potency means the concentration at half of the fitted maximal effect.

Potency, inconclusive:
COC(=O)C1=C(C)N(CCc2c[nH]c3ccccc23)C(=O)/C1=C\N(C)C 31.6 µM [inhibitor, partial curve, poor fit]
CC(C)(C)c1ccc(/C=C(\C#N)C(=O)Nc2ccccn2)cc1 89.1 µM [inhibitor, single point]
CC(C)(C)C(=O)/C(=C/c1ccc(Cl)cc1)n1cncn1 100 µM [inhibitor, single point]
c1ccc(-c2nc(-c3ccccc3)c(NC3CCCCC3)o2)cc1 70.8 µM [inhibitor, partial curve]
COc1cccc(CNS(=O)(=O)c2c(C)[nH]c(C)c2C(=O)N2CCCCC2)c1 39.8 µM [inhibitor, single point]
N#CC(C#N)=Cc1ccc(OCC(=O)N2CCOCC2)cc1 89.1 µM [inhibitor, single point]
COc1ccc(-c2cc(-c3ccccc3)nc(SC(C)C(=O)O)c2C#N)cc1 (stereo unspecified) 89.1 µM [inhibitor, single point]
CCC1=C/C(=C/N(C)c2ccccc2)C(=O)S1 79.4 µM [inhibitor, single point]
CCCn1c(SCC(=O)Nc2ccc(Cl)cc2)n[nH]c1=O 89.1 µM [inhibitor, partial curve, poor fit]
CCCCn1c(-c2ccsc2)nc2c1c(=O)[nH]c(=O)n2CCC 89.1 µM [inhibitor, single point]
Cc1cc(-c2ccc(N=Nc3c(S(=O)(=O)O)cc4cc(S(=O)(=O)O)cc(N)c4c3O)c(C)c2)ccc1N=Nc1c(S(=O)(=O)O)cc2cc(S(=O)(=O)O)cc(N)c2c1O 25.1 µM [inhibitor, full curve, poor fit]
O=S(=O)(NC1=NCCCCC1)c1ccc2sc(NS(=O)(=O)c3ccc4ccccc4c3)nc2c1 12.6 µM [inhibitor, partial curve, poor fit]
CCc1nnc(NS(=O)(=O)c2ccc(NC(=S)NC(=O)c3ccc(Br)cc3)cc2)s1 89.1 µM [inhibitor, single point]
CC(C)n1c(=S)[nH]c2c1c(=O)[nH]c(=O)n2C 44.7 µM [inhibitor, partial curve, poor fit]
CCC(=O)Nc1nonc1-c1nc2ccccc2n1N(C(=O)CC)C(=O)CC 44.7 µM [inhibitor, partial curve, poor fit]
Cc1ccccc1-c1nccc(NCc2cccs2)n1 79.4 µM [inhibitor, single point]
COc1ccc(-c2nc(CS(=O)CC(=O)NC3CCCC3)c(C)o2)cc1 (stereo unspecified) 39.8 µM [inhibitor, partial curve, poor fit]
O=C(N/N=C/c1cccc2ccccc12)c1n[nH]c2c1CCCC2 79.4 µM [inhibitor, partial curve, poor fit]
N#CC(C#N)=c1ccc2c(c1)NC1(CCCCC1)N=2 100 µM [inhibitor, single point]
CC(=O)C1CCC2C3CC=C4N(C)C(=O)CCC4(C)C3CCC12C (stereo unspecified) 100 µM [inhibitor, single point]
COc1ccc(NC(=O)c2cnc(SC)n2-c2ccc(F)cc2)c(OC)c1 89.1 µM [inhibitor, single point]
O=C(CCN1CCc2ccccc2CC1)c1ccc2c(c1)OCCO2 44.7 µM [inhibitor, partial curve, poor fit]
COc1cc(/C=N/NC(=O)c2ccc(Cn3cc([N+](=O)[O-])cn3)o2)cc(Br)c1O 89.1 µM [inhibitor, single point]
CN(C)c1ccc(NC(=O)c2ccc3nsnc3c2)cc1 28.2 µM [inhibitor, partial curve, poor fit]
O=S(=O)(c1ccc(F)cc1)N1CCN(CC2CC3C=CC2C3)CC1 (stereo unspecified) 100 µM [inhibitor, single point]
O=C(N/N=C/c1sc(=O)[nH]c1-[n+]1ccc2ccccc2c1)c1ccccc1[O-] 89.1 µM [inhibitor, partial curve, poor fit]
CCn1c(N)c(C(=O)NCCCOC)sc1=S 56.2 µM [inhibitor, single point]
COc1ccc(OC)c(/C=C/C(=O)c2ccc3c(c2)OCCO3)c1 39.8 µM [inhibitor, single point]
O=C(CCl)N1c2ccccc2Sc2c1ccc1ccccc21 56.2 µM [inhibitor, partial curve, poor fit]
CN1C(=S)SC(C)(NO)C1(C)C (stereo unspecified) 31.6 µM [inhibitor, partial curve, poor fit]
CC(OC(=O)c1ccccc1OCc1ccc(Cl)cc1)C(N)=O (stereo unspecified) 39.8 µM [inhibitor, partial curve]
CC(C)C[C@@H](N)c1nnc(SCC(=O)c2ccc(Cl)cc2)o1 100 µM [inhibitor, partial curve, poor fit]
CCCCC/C=C\C[C@@H](O)/C=C/C=C/C=C\[C@@H](O)CCCC(=O)O 15.8 µM [inhibitor, single point]
COc1cc(NS(=O)(=O)c2ccc(NC(=S)NC(=O)c3sc4ccccc4c3Cl)cc2)ncn1 89.1 µM [inhibitor, partial curve]
Cc1ccc(NC(=O)C(C)N2CCc3ccccc3C2)cc1 (stereo unspecified) 35.5 µM [inhibitor, partial curve]
COc1cc(SC)ccc1C(=O)Nc1ccc(OCC(=O)N2CCOCC2)cc1 50.1 µM [inhibitor, partial curve, poor fit]
CCCCN1CNC(=S)N(c2ccc(C(=O)OCC)cc2)C1 50.1 µM [inhibitor, partial curve, poor fit]

Arranged by SMILES length (low to high): 3 of the compounds above.
Potency, inconclusive:
CCn1c(N)c(C(=O)NCCCOC)sc1=S 56.2 µM [inhibitor, single point]
COc1ccc(-c2nc(CS(=O)CC(=O)NC3CCCC3)c(C)o2)cc1 (stereo unspecified) 39.8 µM [inhibitor, partial curve, poor fit]
O=S(=O)(NC1=NCCCCC1)c1ccc2sc(NS(=O)(=O)c3ccc4ccccc4c3)nc2c1 12.6 µM [inhibitor, partial curve, poor fit]

Following part.

Potency, active:
COC(=O)c1ccccc1NC1=C/C(=N\S(=O)(=O)c2ccc(C(=O)O)cc2)c2ccccc2C1=O 25.1 µM
Cc1cc(C(=O)COC(=O)c2cccnc2Cl)c(C)n1CC1CCCO1 (stereo unspecified) 89.1 µM
CC1(C)OC(=O)C(=Cc2ccc(-c3ccc(S(N)(=O)=O)cc3)o2)C(=O)O1 79.4 µM
COC(=O)c1ccc(NC(=O)c2nc(S(=O)(=O)Cc3cccc(C)c3)ncc2Cl)cc1 20 µM
Cc1[nH][nH]c(=O)c1C(c1ccc(-c2ccc(Cl)cc2)o1)c1c(C)[nH][nH]c1=O 79.4 µM
COc1ccccc1-c1cc(C(F)(F)F)nc(S(=O)(=O)CCCC(=O)Nc2ccc(F)cc2F)n1 56.2 µM

Max response, negative = inhibition, inactive:
OC1(c2cccc(C(F)(F)F)c2)CCNCC1 -9.18%
C[C@@]12C(=O)Nc3ccc(F)cc3C(=O)N1[C@H]1c3cc(Cl)ccc3OC[C@@H]1[C@@H]2c1ccccc1 0.64%
CCOc1ccc(CC(=O)NCCc2csc3nc(-c4ccccc4F)nn23)cc1 13.3%
CCCN1C(=O)c2ccccc2NC1c1ccc(OC)c(COc2ccc([N+](=O)[O-])cc2)c1 (stereo unspecified) -23.1%
S=c1[nH]nc(-c2ccc(Br)cc2)n1-c1ccc2c(c1)OCCO2 -15.3%
C=CCOc1ccc(CN(C)C(=O)CNC(=O)c2ccc(-c3ccccc3)cc2)cc1 -2.59%
C=C1C(=O)O[C@H]2C[C@]3(C)C([C@@H](OC(=O)/C(C)=C/C)[C@H]12)[C@](C)(O)CC[C@H]3O (stereo partly specified) -11.9%
CC(N)=Nc1ccc([N+](=O)[O-])cc1 -8.2%
COc1cccc(C(=O)Nc2nnc(-c3cccs3)s2)c1 0%
CCN(CC(=O)Nc1ccc(N2CCOCC2)cc1)CC(=O)NC(C)(C)C 3.96%
Cc1ccccc1OCc1nnc(SCC(=O)Nc2ccc3nc(SCC(=O)Nc4ccccc4)sc3c2)n1C -21.7%
Cc1cccc(C)c1-n1c(C)cc(/C=C2\NC(=O)NC2=O)c1C -7.32%
O=S(=O)(Nc1c(Br)cc(Br)c2cccnc12)C1CCCCC1 -4.84%
Cc1ccc(-c2nn(-c3ccccc3)cc2/C=N/NC(=O)c2ccncc2)o1 -9.13%
CCCN(CCC)CC(O)Cn1cc(/C=C/C(=O)c2cccs2)c2ccccc21 (stereo unspecified) 9.38%
O=C(Nc1nnc(C2CCCCC2)s1)C1CC(=O)N(c2ccc(F)cc2)C1 (stereo unspecified) -8.88%
Fc1ccc2c(c1)Sc1ccc(Cl)cc1CC2N1CCN(CCC2OCCO2)CC1 (stereo unspecified) 0.223%
Oc1ccc(N2CCN(c3ccnc4cc(Cl)ccc34)CC2)cc1 -9.22%
CC(=O)Nc1ccc(S(=O)(=O)/N=C2\C(=O)c3ccccc3C([O-])=C2n2cc[n+](-c3ccccn3)c2)cc1 -26.2%
CCOc1ccc(C2/C(=C(\O)c3ccc4c(c3)OCCO4)C(=O)C(=O)N2CCN2CCOCC2)cc1OC (stereo unspecified) 28%
O=C(CNC(=O)c1ccccc1F)N/N=C/c1cc(Br)ccc1OC(=O)/C=C/c1ccco1 10.3%
Cc1cc(C)cc(OCC(=O)NNC(=S)NC(=O)C2CC2)c1 -0.23%
O=C(c1ccc(N2C(=O)C3CC=C(Cl)CC3C2=O)cc1)N1CCCCC1 (stereo unspecified) 4.48%
